We go through two molecules from article doi:10.1101/2025.02.12.637848.

Chains of the proteins cited; added tags and fusions are not shown. Lines headed by an entry give the natural chain unless they say otherwise; changes in a name come on top.
UniProt Q03370: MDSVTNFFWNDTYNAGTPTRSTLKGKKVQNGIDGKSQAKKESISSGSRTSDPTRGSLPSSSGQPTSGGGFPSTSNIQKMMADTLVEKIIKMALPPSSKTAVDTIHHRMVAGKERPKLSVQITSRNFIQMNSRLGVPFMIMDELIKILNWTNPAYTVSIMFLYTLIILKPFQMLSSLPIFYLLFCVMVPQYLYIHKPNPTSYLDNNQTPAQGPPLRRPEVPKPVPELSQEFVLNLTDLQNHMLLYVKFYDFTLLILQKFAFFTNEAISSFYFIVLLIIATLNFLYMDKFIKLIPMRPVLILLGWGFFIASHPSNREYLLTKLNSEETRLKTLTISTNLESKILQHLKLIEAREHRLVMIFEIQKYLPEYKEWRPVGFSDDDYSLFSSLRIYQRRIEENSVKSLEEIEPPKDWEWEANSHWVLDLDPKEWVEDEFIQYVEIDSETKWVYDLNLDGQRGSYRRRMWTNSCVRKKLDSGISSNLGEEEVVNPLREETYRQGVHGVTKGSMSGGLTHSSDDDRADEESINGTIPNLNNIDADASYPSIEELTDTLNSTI

Common to all, as to test: co-IP
For test [1], the target named is T1, Pex28-13xMyc (Saccharomyces cerevisiae) (UniProt P38848).
T1 sequence: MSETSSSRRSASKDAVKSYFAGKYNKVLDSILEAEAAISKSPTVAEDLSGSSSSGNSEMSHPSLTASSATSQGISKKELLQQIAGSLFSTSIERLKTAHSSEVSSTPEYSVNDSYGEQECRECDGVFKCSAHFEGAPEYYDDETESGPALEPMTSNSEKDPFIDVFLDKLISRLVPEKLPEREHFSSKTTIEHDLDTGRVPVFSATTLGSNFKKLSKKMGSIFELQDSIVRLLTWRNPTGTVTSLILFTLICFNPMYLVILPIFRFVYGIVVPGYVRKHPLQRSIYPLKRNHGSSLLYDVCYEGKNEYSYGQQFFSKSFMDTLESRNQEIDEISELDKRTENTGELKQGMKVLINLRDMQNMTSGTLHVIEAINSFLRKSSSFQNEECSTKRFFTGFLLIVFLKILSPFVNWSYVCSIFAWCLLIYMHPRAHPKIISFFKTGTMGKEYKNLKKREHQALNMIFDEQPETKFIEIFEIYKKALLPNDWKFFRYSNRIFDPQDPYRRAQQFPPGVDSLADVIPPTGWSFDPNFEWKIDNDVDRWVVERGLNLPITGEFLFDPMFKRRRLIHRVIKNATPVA

Test [2] addresses T2, Pex32-3xHA (Saccharomyces cerevisiae) (UniProt P38292).
T2 sequence: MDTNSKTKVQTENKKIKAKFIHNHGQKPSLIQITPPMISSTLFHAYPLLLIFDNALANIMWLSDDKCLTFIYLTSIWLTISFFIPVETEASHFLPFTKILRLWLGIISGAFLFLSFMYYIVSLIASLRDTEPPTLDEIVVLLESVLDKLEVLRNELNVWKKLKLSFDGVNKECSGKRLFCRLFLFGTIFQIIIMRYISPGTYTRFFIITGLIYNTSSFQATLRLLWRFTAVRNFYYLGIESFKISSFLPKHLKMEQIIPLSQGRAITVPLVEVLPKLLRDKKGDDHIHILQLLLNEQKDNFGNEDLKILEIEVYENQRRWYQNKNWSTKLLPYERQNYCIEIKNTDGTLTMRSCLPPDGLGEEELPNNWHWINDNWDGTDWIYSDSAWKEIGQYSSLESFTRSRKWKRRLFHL

For test [3], the target named is Pex29^DysFΔ (Saccharomyces cerevisiae) (UniProt Q03370).
Test [4] concerns the target Pex32^DysFΔ (Saccharomyces cerevisiae) (UniProt P38292).

Results are given in words; binding and its absence hold for the method and conditions named. In cells and extracts the contact can be indirect. A result given as binding can be weak or reduced; the word gives no strength. For some of these results: Tags and fused reporters may be left off the sequences shown.

With Pex30^DysFΔ (from UniProt Q06169), the binding entry in test [1] and in test [2] was “binds” throughout.

B1: Pex30 (protein, UniProt Q06169 1-523)
chain: MSGNTTNVHETRAKFAETLQPRIGGNTTKVIRAALEKNEAESGVSEDNDNGSLEKVNVATSPLLTSTPPTISKALVKLYPYLILIDEFLNVVTWTGKNIWSSVLMLCLFITTVEYFETLVKYFGHLAIIAILWGYSLLDNYIEGTLSSSPTLEDIALLMNRVSLKSDILLSPMVNLGTQDIQRLLYTTVILSPIYVMITWLLLPPRSLMLMVGMFLLTYHSPWSKVARRLLWKFKIVRLLVFYVTGLDLGGINKDQGIFATVQKQVKKLASTENSNGVLSDSKPIRFTYVLYENQRRWLGIGWKPSMLSYERTPWTDEFLNEAPSPENFHLPEETNTMVWRWVDKTWRLDMTNDGAIQVPNSKARTSADPSPDEGFIYYDNTWKKPSKEDSFSKYTRRRRWVRTAELVKTSDFDESVINSNRNSAIEQKVEENSTNGLTAEQELGSNKQEKDNAKKVGEPTTEETKEFAEASNINEGEFERISSTDEEVLKSRARDRLAKVLDDTEEKEQSNPTIGRDSKKAV
Take B1: the binding entry in test [3] and in test [4] was “binds” in each case.
